# No constants are given. Whether binding was seen depends on the method and setting. In cells and extracts the contact can be indirect. Some binding calls cover weakened binding; strength is not graded here. Where a sequence is shown, tags or fusion partners need not be part of it.
# Biological target: glutamate NMDA receptor NR1 subunit (mouse (endogenous in cerebral cortex synaptosomes and cortical cell cultures)) (UniProt P35438)
# Experiment: co-IP; membranes of cortical cell cultures from WT and HINT1-/- mice, uninfected or infected with HINT1 lentiviral particles; NR1 subunits immunoprecipitated, blots probed for HINT1 and CNR1; cells from 10 wells pooled
binder,measurement,value
"histidine triad nucleotide-binding protein 1 (protein, UniProt P70349 1-126) MADEIAKAQVAQPGGDTIFGKIIRKEIPAKIIFEDDRCLAFHDISPQAPTHFLVIPKKHISQISVADDDDESLLGHLMIVGKKCAADLGLKRGYRMVVNEGADGGQSVYHIHLHVLGGRQMNWPPG",binding,binds

# Reference: paper PMC3851374
